The whole screen tested about 330,000 compounds, of which about 7,700 (2.3%) were called active. The shares of active, inactive and inconclusive entries below differ from those in the screen. The call rests on the fitted dose curve; in most records, active means well fitted inhibition curve with a large enough effect; inconclusive means small, poorly fitted or top-dose-only effect, or effect the other way; inactive means flat fitted curve, though single readings scatter. Potencies beside an inconclusive call are fits to weak or partial responses and may not hold up.
experiment: qHTS screen for small molecules that inhibit ELG1-dependent DNA repair in human embryonic kidney (HEK293T) cells expressing luciferase-tagged ELG1; settings: HEK293T ELG1-luciferase reporter, luminescence, 16 h, DNA damage induced by 5-fluorouridine; activity change, negative = inhibition: at 46.1 µM (top of the series); further: nearly all actives have a fitted effect of over 55% in size
Outline: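 DMSO vehicle served as the neutral condition. Each well held 2,000 cells given 5-fluorouridine plus compound; after 16 hr at 37 °C/5% CO2, ONE-Glo was added and luciferase measured 30 min later.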
On the % scale 0 is the no-effect control and ±100 the full control effect; potency means the concentration at half of the fitted maximal effect.

Row | Compound | Potency | activity change, negative = inhibition
1 | O=C(O)CCc1ccc(-c2ccccc2)n1-c1ccc(C(=O)O)cc1 | inconclusive: 32.6 µM [activator, partial curve, poor fit] | 
2 | C(=N\N(c1ccccc1)c1ccccc1)/c1ccccn1 |  | inactive: 3.36%
3 | N#Cc1ccccc1Cn1cc(/C=N/Nc2ccc([N+](=O)[O-])cn2)c2ccccc21 | active: 6.51 µM | 
4 | COc1cc2ccccc2cc1C(=O)N(CCN(C)C)c1nc2c(OC)ccc(OC)c2s1 |  | inactive: -9.65%
5 | Cc1ccccc1C(=O)NCCNC(=O)c1ccco1 |  | inactive: 9.67%
6 | O=C(CCCOc1ccc(Cl)cc1Cl)N/N=C/c1ccco1 | inconclusive: 16.4 µM [activator, single point] | 
7 | CC(C)(C)OC(=O)NCC(=O)NNC(=O)C(C(=O)OCc1ccccc1)c1ccccc1 (stereo not given) |  | inactive: 13.8%
8 | CCCCc1ccc(N2C(=O)[C@@H]3C(CC(N)=O)NC4(C(=O)Nc5ccc(F)cc54)[C@@H]3C2=O)cc1 (stereo not given in full) |  | inactive: -0.482%
9 | Cn1c(=NC(=O)c2cnccn2)sc2ccccc21 | inconclusive: 2.91 µM [activator, full curve] | 
10 | Nc1nnnn1/N=C/c1cccc(O)c1 | inconclusive: 29.1 µM [activator, single point] | 
11 | COc1ccc(N2CCN(C(CNC(=O)c3ccco3)c3cccnc3)CC2)cc1 (stereo not given) | inconclusive: 9.2 µM [activator, partial curve, poor fit] | 
12 | Cc1ccc(NC(=O)c2ccc3snnc3c2)cc1C | inconclusive: 20.6 µM [activator, partial curve] | 
13 | CC1(C)CC(=O)C2=C(C1)c1c(ccc3ncccc13)NC2c1cccs1 (stereo not given) |  | inactive: 18.9%
14 | CC(C)(C)Sc1ccc(N)nc1 | inconclusive: 29.1 µM [activator, single point] | 
15 | COc1c(F)cccc1C1=CC(=O)C[C@H](c2ccc3c(c2)OCO3)C1 | inconclusive: 23.1 µM [inhibitor, single point] | 
16 | COc1ccc(-c2oc(=O)c3cc(OC)c(OC)cc3c2C#CC2(O)CCCCC2)cc1 | inconclusive: 29.1 µM [activator, single point] | 
17 | CCOc1ccc(OCCC(=O)NNC(=O)c2ccccc2Cl)cc1 |  | inactive: 16.1%
18 | COCCNC(=O)c1ccc2c(Cl)c3c(nc2c1)CCC3 | inconclusive: 20.6 µM [activator, partial curve] | 
19 | CN(C)S(=O)(=O)c1ccc(C(=O)NCc2nnc(SCC(=O)NCc3ccco3)o2)cc1 |  | inactive: 1.1%
20 | Cc1cccc(NCc2nnc(-c3ccccc3)o2)c1C | inconclusive: 13 µM [inhibitor, partial curve] | 
21 | C#CCOCCOCCOCCNc1nc(N2CCN(C(=O)CCCCCCCCCCNC(=O)[C@H](CCCCN)n3cc(CCO)nn3)CC2)nc(N2CCN(C(=O)CCCCCCCCCCNC(=O)[C@H](CCCN=C(N)N)n3cc(C[C@@H](C)CC)nn3)CC2)n1 | inconclusive: 14.1 µM [inhibitor, single point] | 
22 | C=CCNC(=O)Nc1ccc(Br)cc1Cl | inconclusive: 29.1 µM [inhibitor, single point] | 
23 | COc1ccc(CC(=O)Nc2sc3c(c2C(N)=O)CCCC3)cc1 | inconclusive: 8.2 µM [inhibitor, partial curve] | 
24 | C=CCNC(=O)/C(=C\C=C\c1ccccc1)NC(=O)c1ccccc1Cl | inconclusive: 18.4 µM [inhibitor, partial curve, poor fit] | 

Quoted from the listing:
COc1ccc(N2CCN(C(CNC(=O)c3ccco3)c3cccnc3)CC2)cc1 (stereo not given) | Potency: inconclusive: 9.2 µM [activator, partial curve, poor fit]
COCCNC(=O)c1ccc2c(Cl)c3c(nc2c1)CCC3 | Potency: inconclusive: 20.6 µM [activator, partial curve]
Cc1ccccc1C(=O)NCCNC(=O)c1ccco1 | activity change, negative = inhibition: inactive: 9.67%
CC(C)(C)OC(=O)NCC(=O)NNC(=O)C(C(=O)OCc1ccccc1)c1ccccc1 (stereo not given) | activity change, negative = inhibition: inactive: 13.8%

Remaining list, next part

Row | Compound | Potency | activity change, negative = inhibition
25 | Cc1cc2nc(CCN(C(=S)NCC3CCCO3)C3CCCC3)[nH]c2cc1C (stereo not given) | inconclusive: 29.1 µM [inhibitor, single point] | 
26 | C[C@H]1CN([C@@H](C)CO)C(=O)c2cccc(NC(=O)Nc3ccc(C(F)(F)F)cc3)c2O[C@H]1CN(C)C |  | inactive: 24.2%
27 | Cc1ccc(C)c(N2CCN(C(=O)c3cc(S(=O)(=O)N4CCOCC4)cn3C)CC2)c1 |  | inactive: 8.35%
28 | COc1ccc(/C=C2\CCCC3C2=NC(=S)NC3c2ccc(OC)cc2)cc1 (stereo not given) | inconclusive: 2.59 µM [inhibitor, full curve] | 
29 | COc1cc(O)cc2cc3c(c(O)c12)C(=O)CC(C)(O)O3 (stereo not given) | inconclusive: 10.3 µM [inhibitor, partial curve] | 
30 | CCN(CC)c1ccc(N)cc1 | inconclusive: 25.9 µM [inhibitor, single point] | 
31 | CC1(C)OC2OC(COC(=O)c3ccccc3)C3OC(C)(C)OC3C2O1 (stereo not given) | inconclusive: 18.4 µM [activator, single point] | 
32 | CC12C(=O)N(NC(=O)c3ccncc3)C(=O)C1C1C=CC2C1 (stereo not given) | inconclusive: 20.6 µM [activator, partial curve, poor fit] | 
33 | CCC1(c2ccc(F)cc2)NC(=O)N(CC(=O)N2c3ccccc3CC2C)C1=O (stereo not given) | inconclusive: 20.6 µM [inhibitor, single point] | 
34 | O=C(CSc1nnnn1-c1ccc2c(c1)OCCO2)Nc1nc2c(s1)CCCC2 | active: 20.6 µM | 
35 | CC1CCc2c(c3ccccc3n2C(=O)CCl)C1 (stereo not given) |  | inconclusive: 29.1% [activator]
36 | Cn1c(SCC(=O)NN2C(=O)NC(C)(c3ccccc3)C2=O)nnc1-c1ccncc1 (stereo not given) |  | inactive: 9.78%
37 | Cc1ccccc1OCCC(=O)OCC(=O)NC1CCS(=O)(=O)C1 (stereo not given) |  | inactive: 11.8%
38 | O=C1N/C(=C\c2ccc(O)cc2)C(=O)c2ccccc21 |  | inactive: 14.6%
39 | Cc1ccnc(Nc2nc(-c3ccc(O)c(O)c3)cs2)c1 | inconclusive: 3.26 µM [activator, single point] | 
40 | O=C(CN1CCN(C(c2ccccc2)c2ccccc2)CC1)NC(=O)NCc1ccco1 |  | inactive: 0%
41 | CCOC(=O)C1(CCOC)CCN(Cc2cnc(-c3cccc(C)c3)nc2)CC1 |  | inactive: -11.5%
42 | CCOc1ccc2nc(/N=C/c3c(C)[nH]n(-c4ccc(C)cc4)c3=O)sc2c1 | inconclusive: 13 µM [activator, partial curve] | 
43 | O=C(CC1NCCc2ccccc21)Nc1ccc(Oc2ccccc2)cc1 (stereo not given) |  | inactive: -12%
44 | COc1ccc(NC(=O)c2cc([N+](=O)[O-])ccc2NC(=O)CNC2CCCCC2C)c(OC)c1 (stereo not given) |  | inactive: -1.95%
45 | COc1ccccc1N1CCN(C(=O)C(C)N(c2ccccc2)S(C)(=O)=O)CC1 (stereo not given) |  | inactive: 9.56%
46 | O=C(Nc1ccc(N2CCCCC2)cc1)c1ccc(F)cc1 | inconclusive: 1.84 µM [activator, full curve] | 
47 | COc1ccccc1N1CCN(Cc2nc(N)nc(Nc3ccc(C)c(Cl)c3)n2)CC1 | active: 14.6 µM | 
48 | O=C(NCCCc1ccccc1)c1cc(COc2c(F)cccc2F)on1 | inconclusive: 16.4 µM [activator, partial curve, poor fit] | 

Row | Compound | Potency | activity change, negative = inhibition
49 | S=C(NCc1ccc(Cl)cc1)NCc1ccccn1 |  | inactive: 2.88%
50 | O=C(CNC(=O)c1cccc(F)c1)N/N=C/c1ccc([N+](=O)[O-])s1 | active: 2.91 µM | 
51 | COc1cc(/C=C/C(=O)OCC(=O)Nc2cc(S(=O)(=O)N3CCCC3)ccc2Cl)cc(OC)c1OC | inconclusive: 25.9 µM [inhibitor, partial curve] | 
52 | Cc1cc([N+](=O)[O-])cnc1NC(C)c1ccccc1 (stereo not given) |  | inactive: -4.98%
53 | Cc1ccc(-c2nnc3c4ccccc4c(C)nn23)cc1S(=O)(=O)N1CCN(CCO)CC1 | inconclusive: 29.1 µM [inhibitor, single point] | 
54 | Cc1cc(C)n2nc(SCC(=O)NC(=O)c3ccc(OC(F)F)cc3)nc2n1 | inconclusive: 2.59 µM [activator, partial curve] | 
55 | CSc1cccc(NS(=O)(=O)c2ccc3c(c2)oc(=O)n3C)c1 | inconclusive: 9.2 µM [inhibitor, partial curve, poor fit] | 
56 | O=C(O)c1cc(-c2ccc(-c3ccc(F)cc3)o2)nc2ccccc12 | inconclusive: 2.06 µM [activator, full curve] | 
57 | Nc1nc(NC(=O)c2cccs2)nn1-c1ccccc1 | inconclusive: 11.6 µM [activator, partial curve] | 
58 | O=C(CN(c1ccc(F)cc1)S(=O)(=O)c1ccc2c(c1)OCCO2)Nc1cccnc1 | inconclusive: 20.6 µM [inhibitor, single point] | 
59 | CCCn1nc(C(=O)Nc2nc3ccccc3[nH]2)c2ccccc2c1=O | inconclusive: 20.6 µM [inhibitor, single point] | 
60 | Cc1ccc(S/C=C\C(=O)c2ccccc2)cc1 | inconclusive: 14.6 µM [activator, partial curve] | 
61 | CCOC(=O)SC1=N/C(=C\c2ccc(N(C)C)cc2)C(=O)S1 | inconclusive: 2.59 µM [activator, full curve, poor fit] | 
62 | CC(=O)Nc1ccc(-c2csc(Nc3ncccn3)n2)cc1 | inconclusive: 1.83 µM [activator, full curve] | 
63 | CC1CCN(c2ccc(S(=O)(=O)NC3=NCCCCC3)cc2[N+](=O)[O-])CC1 | inconclusive: 11.6 µM [inhibitor, partial curve] | 
64 | Cc1[nH]nc(Nc2ccccc2)c1[N+](=O)[O-] | inconclusive: 16.4 µM [activator, partial curve] | 
65 | COc1ccc(/C=C/C(=O)OCC(=O)NCc2ccccc2Cl)cc1OC | inconclusive: 29.1 µM [inhibitor, single point] | 
66 | COc1ccc2nc3n(c(=O)c2c1)-c1ccc(Cl)cc1C(=O)NC3Cc1ccccc1 (stereo not given) | inconclusive: 20.6 µM [inhibitor, single point] | 
67 | Cc1c(C=O)c2ccccc2n1CC(=O)NC(C)c1ccccc1 (stereo not given) | inconclusive: 29.1 µM [inhibitor, single point] | 
68 | Cc1ccsc1CN(C)CC(=O)Nc1ccc([N+](=O)[O-])cc1Cl |  | inactive: -1.63%
69 | COc1cccc(NC(=S)N(Cc2ccccn2)Cc2ccccc2Cl)c1 | inconclusive: 25.9 µM [inhibitor, single point] | 
70 | COC(=O)CCC(=O)N1CCCC(CO)(Cc2ccccc2)C1 (stereo not given) | inconclusive: 16.4 µM [activator, partial curve] | 
